Measurements as given in publication doi:10.1101/2020.10.05.325951.
These are yes or no findings as the source states them, for the method shown. Some results given as binding are weak or reduced against the parent protein; the word gives no strength.

Sequences of proteins named here, by UniProt entry; tags and fusion partners are left off. A change or cut given only in a name is not applied to a line headed by its entry.
UniProt Q9EP80: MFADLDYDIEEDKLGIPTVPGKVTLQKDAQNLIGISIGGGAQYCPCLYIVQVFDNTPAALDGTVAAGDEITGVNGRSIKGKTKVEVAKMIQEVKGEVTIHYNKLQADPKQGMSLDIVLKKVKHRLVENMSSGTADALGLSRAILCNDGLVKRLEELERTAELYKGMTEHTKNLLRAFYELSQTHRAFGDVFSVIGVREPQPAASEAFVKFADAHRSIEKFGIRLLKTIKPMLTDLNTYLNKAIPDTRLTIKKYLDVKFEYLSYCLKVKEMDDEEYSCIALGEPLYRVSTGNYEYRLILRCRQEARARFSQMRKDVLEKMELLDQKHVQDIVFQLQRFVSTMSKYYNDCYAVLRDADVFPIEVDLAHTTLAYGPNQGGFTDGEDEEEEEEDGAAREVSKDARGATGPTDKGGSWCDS

Assays:
Assay in all cases: fluorescence polarisation
[1] = target: PICK1 R197Q, purified full-length (UniProt Q9EP80)
[2] = target: PICK1 WT (protein interacting with C kinase 1), purified full-length (UniProt Q9EP80)
[3] = target: PICK1 R185Q, purified full-length (UniProt Q9EP80)
[4] = target: PICK1 R247H, purified full-length (UniProt Q9EP80)

binding [1]: binds
binding [2]: binds
binding [3]: binds
binding [4]: binds
B1: DATC15 peptide (15-residue peptide from the C-terminal region of the human dopamine transporter) (peptide)
peptide: RGEVRQFTLRHWLKV
